# Test results taken from article PMC5996148.
# Sequences of proteins named here, by UniProt entry; tags and fusion partners are left off. A change or cut given only in a name is not applied to a line headed by its entry.
# UniProt Q9HCP0: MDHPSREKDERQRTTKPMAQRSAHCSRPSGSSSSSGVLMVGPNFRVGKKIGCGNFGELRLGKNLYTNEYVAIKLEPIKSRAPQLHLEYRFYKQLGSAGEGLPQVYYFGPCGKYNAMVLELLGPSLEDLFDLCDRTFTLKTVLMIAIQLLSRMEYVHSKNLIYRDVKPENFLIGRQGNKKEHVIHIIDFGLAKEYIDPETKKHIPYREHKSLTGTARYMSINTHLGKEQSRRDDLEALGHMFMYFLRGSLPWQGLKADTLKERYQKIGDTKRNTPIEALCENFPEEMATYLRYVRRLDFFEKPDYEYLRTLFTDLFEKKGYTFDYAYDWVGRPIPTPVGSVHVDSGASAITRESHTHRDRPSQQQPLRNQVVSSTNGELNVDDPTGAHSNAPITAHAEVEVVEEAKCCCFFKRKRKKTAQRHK
# Values joined by “and” are separate entries in the source; they are usually repeats but may differ in a detail not shown here. Equal values may be shown once. The list shows a part of the results. For some assays here: The source does not settle which construct or isoform was used.
# Columns and labels:
# Experiment in all cases: protein microarray (ProtoArray v5.0), streptavidin-Alexa Fluor 647
# Details in all cases: 3'-biotin; 20 mM Tris (pH 7.5), 5 mM MgCl2, 100 mM KCl, 0.1% Tween-20, A/T-rich and random oligonucleotide blockers; temperature not stated; high values mean tight binding
# COBRA1 (human) = system: COBRA1 (human)
# COG8 (human) = system: COG8 (human)
# COL4A3BP (human) = system: COL4A3BP (human)
# COMMD1 (human) = system: COMMD1 (human)
# COMMD2 (human) = system: COMMD2 (human)
# COPZ1 (human) = system: COPZ1 (human)
# COX4I2 (human) = system: COX4I2 (human)
# COX4NB (human) = system: COX4NB (human)
# COX5B (human) = system: COX5B (human)
# CPLX1 (human) = system: CPLX1 (human)
# CRABP2 (human) = system: CRABP2 (human)
# CRADD (human) = system: CRADD (human)
# CRLF3 (human) = system: CRLF3 (human)
# CRYAA (human) = system: CRYAA (human)
# CRYBA1 (human) = system: CRYBA1 (human)
# CSF1 (human) = system: CSF1 (human)
# CSNK1G1 = CSNK1G1 (UniProt Q9HCP0)
# CTBP1 (human) = system: CTBP1 (human)
# CTNNB1 (human) = system: CTNNB1 (human)
# CTXN1 (human) = system: CTXN1 (human)
sequence,measurement,setting,value
GGTGACAGGGGTATGGGGAGGGG [G4-2 biotinylated (Ct1)],binding signal,COBRA1 (human),-0.383 z-score
same,binding signal,COG8 (human),-0.398 z-score
same,binding signal,COL4A3BP (human),-0.382 z-score
same,binding signal,COMMD1 (human),-0.363 z-score
same,binding signal,COMMD2 (human),-0.367 z-score
same,binding signal,COPZ1 (human),-0.4 z-score
same,binding signal,COX4I2 (human),-0.395 z-score
same,binding signal,COX4NB (human),-0.397 z-score
same,binding signal,COX5B (human),-0.39 z-score
same,binding signal,CPLX1 (human),-0.392 z-score
same,binding signal,CRABP2 (human),-0.368 z-score
same,binding signal,CRADD (human),-0.401 z-score
same,binding signal,CRLF3 (human),-0.389 z-score
same,binding signal,CRYAA (human),-0.375 z-score
same,binding signal,CRYBA1 (human),-0.368 z-score
same,binding signal,CSF1 (human),-0.39 z-score
same,binding signal,CSNK1G1,4.05 z-score
same,binding signal,CTBP1 (human),-0.385 z-score and -0.393 z-score
same,binding signal,CTNNB1 (human),-0.396 z-score
same,binding signal,CTXN1 (human),-0.371 z-score

# Another view of some results above:
sequence | measurement | setting | value
GGTGACAGGGGTATGGGGAGGGG [G4-2 biotinylated (Ct1)] | binding signal | COMMD1 (human) | -0.363 z-score
same | binding signal | CRYBA1 (human) | -0.368 z-score
